Results are given in words; binding and its absence hold for the method and conditions named. Binding seen in cells or lysates may run through a third protein. Here binding means that the protein was enriched with, or labelled near, the bait; the list need not be complete.
Target: 1M3U self-assembling mutant (D157L/E158L/D161L) fused to YFP Venus (UniProt P31057)
Assay: affinity purification with mass spectrometry

Amino acid sequences for entries named in this document (tags omitted). A change or cut given only in a name is not applied to a line headed by its entry.
UniProt P31057: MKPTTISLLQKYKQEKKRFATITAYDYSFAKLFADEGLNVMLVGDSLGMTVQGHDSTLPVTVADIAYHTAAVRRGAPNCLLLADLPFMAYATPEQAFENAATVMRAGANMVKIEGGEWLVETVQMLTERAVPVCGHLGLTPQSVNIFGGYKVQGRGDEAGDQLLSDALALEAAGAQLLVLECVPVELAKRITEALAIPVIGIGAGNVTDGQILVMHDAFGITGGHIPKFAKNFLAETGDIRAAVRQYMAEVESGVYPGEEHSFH

B1: ASP1, cytosolic L-asparaginase (protein, UniProt P38986 1-381)
chain: MKSDSVEITTICPDVENSQFVVQSNCPETIPEILKSQNAAVNGSGIACQQRSLPRIKILGTGGTIASKAIDSSQTAGYHVDLTIQDLLDAIPDISKVCDIEYEQLCNVDSKDINEDILYKIYKGVSESLQAFDGIVITHGTDTLSETAFFIESTIDAGDVPIVFVGSMRPSTSVSADGPMNLYQAICIASNPKSRGRGVLVSLNDQISSGYYITKTNANSLDSFNVRQGYLGNFVNNEIHYYYPPVKPQGCHKFKLRVDGKHFKLPEVCILYAHQAFPPAIVNLVADKYDGIVLATMGAGSLPEEVNETCMKLSLPIVYSKRSMDGMVPIANVPKKGSKEDNLIASGYLSPEKSRILLQLCLAGNYTLEEIKHVFTGVYGG
  binding: binds

From paper doi:10.1101/2024.09.13.612878
